PubChem BioAssay AID1259281, Sanger Institute – 2017

- Test: 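Find knock-downs that kill colorectal cancer cells alone or strengthen targeted drugs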 (primary screen)
- Cells: human COLO678 colorectal cancer cell line
- Knock-down reagent: siRNA pool against human genes
- Treatment: anchor drugs at fixed doses: BYL719 1 µM, cetuximab 5 µg/ml or trametinib 10 nM; DMSO vehicle for the siRNA-alone arm
- Read-out: 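Surviving cells scaled to non-targeting siRNA control as replicate means; robust z-score for knock-down alone; synergy scores weigh knock-down with drug against the predicted combined effect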
- Scale: robust z-score, siRNA alone: higher = more viable cells; strongly negative means essential; viability, siRNA alone: higher = more surviving cells; synergy score with BYL719 and synergy score with trametinib and synergy score with cetuximab: higher = stronger synergistic killing with drug
- Call rule: 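Called essential (knock-down alone) if knock-down by itself drops cell number to a robust z-score under -3; all others no change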
- Meaning of the calls: active = essential (knock-down alone); inactive = no change
The deposit covers 794 reagents; below is an unselected part. 22 of them (2.8%) were called active. 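Calls rest on knock-down alone only; drug synergy scores play no part in them.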 No viability above 1 is reported: the scale is capped. Reagent sequences are not shown. Not given: the amount of reagent, the time to read-out.

no.	target gene	PubChem SID	robust z-score, siRNA alone	viability, siRNA alone (fraction of control)	synergy score with BYL719	synergy score with trametinib	synergy score with cetuximab	activity call
1	THNSL1	SID152147285	0.473	1	-0.049	0.0209	0.0233	inactive
2	TRIB2	SID56479059	-3.13	0.885	-0.0587	-0.00974	-0.11	active
3	TNNI3K	SID56478945	0.473	1	-0.000854	0.0556	-0.0586	inactive
4	ITPK1	SID56479109	0.473	1	-0.0248	-0.0614	0.0244	inactive
5	RAD21	SID134311994	0.473	1	0.0403	0.0295	0.0276	inactive
6	STK32B	SID56478812	0.473	1	-0.0919	-0.0255	-0.00873	inactive
7	NRBP2	SID56479019	-0.0734	0.983	-0.108	0.0155	0.0327	inactive
8	NEK3	SID152154962	0.473	1	0.0255	0.0929	-0.0281	inactive
9	MYLK2	SID56479029	0.473	1	0.103	0.086	0.018	inactive
10	CDKL4	SID135624323	0.473	1	0.0412	0.0626	-0.0313	inactive
11	BCR	SID152154242	-4.31	0.848	-0.0696	-0.0562	-0.0449	active
12	NME1	SID56479166	0.473	1	-0.0632	-0.0127	-0.0681	inactive
13	KCNH8	SID134311656	-1.01	0.953	0.0151	0.159	-0.0281	inactive
14	VRK2	SID152152279	-0.258	0.977	-0.113	-0.106	0.0691	inactive
15	MAPK4	SID152148838	-1.04	0.952	-0.0285	-0.00347	0.0046	inactive
16	CDK5	SID56478599	0.473	1	-0.0919	0.0453	0.0448	inactive
17	LATS1	SID56478819	-3.62	0.87	-0.0568	0.00372	-0.0206	active
18	MAST4	SID135625002	0.473	1	-0.0919	-0.0144	-0.0458	inactive
19	CSNK1E	SID56478659	-2.31	0.912	-0.121	-0.00581	-0.0427	inactive
20	TGFBR3	SID152150530	0.473	1	0.0318	-0.0187	0.0802	inactive
21	MATK	SID152153842	0.473	1	0.0522	0.00331	0.0226	inactive
22	SPHK2	SID56478885	0.473	1	-0.0919	-0.0632	-0.0135	inactive
23	TAF1L	SID152155360	0.473	1	-0.0541	0.0454	0.0144	inactive
24	DGKK	SID135624472	-1.56	0.935	-0.125	-0.0234	0.0104	inactive
25	PAK2	SID135620709	-1.12	0.949	-0.138	0.0333	0.0322	inactive
26	STK35	SID135620978	0.473	1	0.134	0.0995	0.0103	inactive
27	MAST1	SID135620865	0.473	1	0.0714	0.0368	-0.0681	inactive
28	MYO3A	SID152148134	0.473	1	-0.018	0.0181	0.0842	inactive
29	SNRK	SID152154333	-1.15	0.948	0.0636	-0.0234	-0.00458	inactive
30	ETNK2	SID56478982	-1.6	0.934	0.0254	-0.0581	0.0707	inactive
31	MAP3K15	SID152147179	0.473	1	0.0417	0.0193	0.0339	inactive
32	PMVK	SID135621255	-0.414	0.972	-0.096	0.0114	-0.0654	inactive
33	JAK1	SID152154758	0.473	1	0.067	0.0726	-0.00691	inactive
34	FYN	SID135620621	0.473	1	-0.0919	0.0343	0.0186	inactive
35	ERBB2	SID152153302	0.473	1	-0.0919	0.0442	-0.0276	inactive
36	MAPK14	SID135620690	0.473	1	-0.0192	0.00212	-0.0033	inactive
37	DAPK2	SID152156399	0.214	0.992	0.0679	-0.0388	-0.0056	inactive
38	CSNK2A2	SID56478861	0.473	1	-0.0919	0.0902	-0.0245	inactive
39	ITK	SID135620623	0.473	1	-0.022	-0.0804	-0.0676	inactive
40	INSRR	SID56479015	0.473	1	0.0829	0.0851	-0.0362	inactive
41	STRADA	SID152149670	0.473	1	0.00791	0.0532	0.0531	inactive
42	NEK11	SID152147168	-0.122	0.981	0.0345	0.0179	-0.0857	inactive
43	BMP2K	SID135620930	0.259	0.993	-0.027	0.0322	0.011	inactive
44	ATRX	SID152156576	0.473	1	-0.0919	-0.0506	-0.0245	inactive
45	IKBKG	SID152147833	-0.183	0.979	0.0015	0.0597	-0.0336	inactive
46	NTRK2	SID152152425	-2.36	0.91	-0.0922	-0.0549	-0.0397	inactive
47	PTGS1	SID134310518	-1.17	0.948	0.112	-0.00665	0.188	inactive
48	MECOM	SID135621208	0.473	1	-0.0919	-0.0497	-0.0681	inactive
49	PFKP	SID56479236	0.473	1	-0.0223	0.0203	0.0174	inactive
50	ROS1	SID56478551	0.115	0.989	-0.0305	0.0329	0.0815	inactive

Part of the list above in another layout.
RAD21 [SID134311994]: robust z-score, siRNA alone = 0.473; viability, siRNA alone (fraction of control) = 1; synergy score with BYL719 = 0.0403; synergy score with trametinib = 0.0295; synergy score with cetuximab = 0.0276; activity call = inactive
STK32B [SID56478812]: robust z-score, siRNA alone = 0.473; viability, siRNA alone (fraction of control) = 1; synergy score with BYL719 = -0.0919; synergy score with trametinib = -0.0255; synergy score with cetuximab = -0.00873; activity call = inactive
NRBP2 [SID56479019]: robust z-score, siRNA alone = -0.0734; viability, siRNA alone (fraction of control) = 0.983; synergy score with BYL719 = -0.108; synergy score with trametinib = 0.0155; synergy score with cetuximab = 0.0327; activity call = inactive
NEK3 [SID152154962]: robust z-score, siRNA alone = 0.473; viability, siRNA alone (fraction of control) = 1; synergy score with BYL719 = 0.0255; synergy score with trametinib = 0.0929; synergy score with cetuximab = -0.0281; activity call = inactive
MYLK2 [SID56479029]: robust z-score, siRNA alone = 0.473; viability, siRNA alone (fraction of control) = 1; synergy score with BYL719 = 0.103; synergy score with trametinib = 0.086; synergy score with cetuximab = 0.018; activity call = inactive
CDKL4 [SID135624323]: robust z-score, siRNA alone = 0.473; viability, siRNA alone (fraction of control) = 1; synergy score with BYL719 = 0.0412; synergy score with trametinib = 0.0626; synergy score with cetuximab = -0.0313; activity call = inactive
BCR [SID152154242]: robust z-score, siRNA alone = -4.31; viability, siRNA alone (fraction of control) = 0.848; synergy score with BYL719 = -0.0696; synergy score with trametinib = -0.0562; synergy score with cetuximab = -0.0449; activity call = active
NME1 [SID56479166]: robust z-score, siRNA alone = 0.473; viability, siRNA alone (fraction of control) = 1; synergy score with BYL719 = -0.0632; synergy score with trametinib = -0.0127; synergy score with cetuximab = -0.0681; activity call = inactive
